Data reported in PubChem BioAssay AID651768 (National Center for Advancing Translational Sciences (NCATS), 2012).
Screen size: about 360,000 compounds; about 1,700 (0.47%) were called active. This list was built around the results that the source calls inconclusive (neither active nor inactive); the mix of calls is not that of the screen. Calls come from the whole dose curve; as a rule, active = well fitted inhibition curve with a large enough effect; inconclusive = small, poorly fitted or top-dose-only effect; inactive = no such curve, though single readings can be large or run the other way. Potencies beside an inconclusive call are fits to weak or partial responses and may not hold up.

Chains of the proteins cited; added tags and fusions are not shown.
UniProt Q14191, whole entry, looked up: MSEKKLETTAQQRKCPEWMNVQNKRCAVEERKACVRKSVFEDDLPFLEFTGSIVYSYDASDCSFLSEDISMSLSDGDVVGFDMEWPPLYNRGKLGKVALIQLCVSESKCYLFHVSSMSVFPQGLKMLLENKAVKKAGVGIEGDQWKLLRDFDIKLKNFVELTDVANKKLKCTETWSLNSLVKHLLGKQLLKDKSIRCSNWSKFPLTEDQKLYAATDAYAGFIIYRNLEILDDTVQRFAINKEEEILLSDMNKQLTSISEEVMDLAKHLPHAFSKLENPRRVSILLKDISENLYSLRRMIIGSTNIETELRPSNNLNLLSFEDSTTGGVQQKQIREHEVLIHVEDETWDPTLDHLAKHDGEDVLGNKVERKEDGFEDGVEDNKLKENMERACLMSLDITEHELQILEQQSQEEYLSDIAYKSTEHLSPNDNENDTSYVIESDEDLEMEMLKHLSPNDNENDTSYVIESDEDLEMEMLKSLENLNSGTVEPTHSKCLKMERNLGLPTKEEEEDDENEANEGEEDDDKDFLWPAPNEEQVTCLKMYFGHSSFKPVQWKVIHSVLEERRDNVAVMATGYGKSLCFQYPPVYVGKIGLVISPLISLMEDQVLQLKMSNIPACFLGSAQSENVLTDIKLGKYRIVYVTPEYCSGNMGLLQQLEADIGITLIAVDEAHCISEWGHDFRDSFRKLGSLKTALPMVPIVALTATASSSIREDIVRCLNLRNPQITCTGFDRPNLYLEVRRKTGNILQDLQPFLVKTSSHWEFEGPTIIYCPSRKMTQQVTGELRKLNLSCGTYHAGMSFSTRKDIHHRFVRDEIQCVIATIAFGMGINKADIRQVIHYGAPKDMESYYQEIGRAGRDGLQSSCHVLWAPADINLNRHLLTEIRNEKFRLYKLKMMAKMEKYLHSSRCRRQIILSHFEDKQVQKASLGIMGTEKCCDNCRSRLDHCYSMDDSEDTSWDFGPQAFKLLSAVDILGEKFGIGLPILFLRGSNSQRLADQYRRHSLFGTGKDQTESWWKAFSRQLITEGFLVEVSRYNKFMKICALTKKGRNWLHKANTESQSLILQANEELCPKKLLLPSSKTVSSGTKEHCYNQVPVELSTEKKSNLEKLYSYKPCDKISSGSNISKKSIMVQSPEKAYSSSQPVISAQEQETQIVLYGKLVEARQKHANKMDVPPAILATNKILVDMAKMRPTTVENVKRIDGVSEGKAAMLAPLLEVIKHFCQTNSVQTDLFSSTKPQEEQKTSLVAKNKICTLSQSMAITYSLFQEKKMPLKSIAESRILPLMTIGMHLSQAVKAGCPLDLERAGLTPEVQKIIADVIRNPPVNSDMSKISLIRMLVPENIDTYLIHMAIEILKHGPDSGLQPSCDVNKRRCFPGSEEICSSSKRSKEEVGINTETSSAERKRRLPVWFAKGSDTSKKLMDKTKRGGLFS

Target: Bifunctional 3'-5' exonuclease/ATP-dependent helicase WRN (Homo sapiens) (UniProt Q14191)
Test: qHTS for Inhibitors of WRN Helicase; note: nearly all actives have a fitted effect of over 55% in size
Conditions: WRN helicase unwinding, fluorescent forked duplex, kinetic; activity change, negative = inhibition: at 114 µM (top of the series) unless noted
In short: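 WRN at 20 nM final preincubated with compound 15 min at room temperature; reaction started with 100 nM fluorophore/quencher forked duplex oligonucleotide and 2 mM ATP final. Unwinding followed kinetically by red fluorescence (ex 525, em 598 nm).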
% is set by controls: 0 for no effect and ±100 for the full control effect; potency is the fitted concentration of half-maximal effect.

Row | SMILES | Potency | activity change, negative = inhibition
1 | Cc1ccc(C(=O)c2c[nH]c3c(F)cc(F)cc3c2=O)cc1 | inconclusive: 100 µM [inhibitor, single point] | –
2 | O=C(O)c1cccc(NC(=S)N/N=C/c2ccccc2OCc2cccc(Br)c2)c1 | inconclusive: 56.2 µM [inhibitor, partial curve] | –
3 | CCOC(=O)/C=C/S(=O)(=O)c1ccc(NC(C)=O)cc1 | inconclusive: 50.1 µM [inhibitor, partial curve] | –
4 | CC(=O)Oc1cc2c3c(c1)/C(=C1/SC(=S)NC1=O)C(=O)N3C(C)(C)C=C2C | inconclusive: 18.9 µM [inhibitor, partial curve] | –
5 | O=c1ccc(=O)n(CCc2ccccn2)[nH]1 | – | inactive: 4.4%
6 | CN(C)CCN(C)Cc1c2ccccc2c(CN(C)CCN(C)C)c2ccccc12 | inconclusive: 35.5 µM [inhibitor, partial curve] | –
7 | CC(Sc1ccc(S(=O)(=O)N2CCN(C)CC2)cn1)C(=O)NC1(C#N)CCCCC1 (stereo not given) | – | inactive: -0.0711%
8 | COc1ccccc1NS(=O)(=O)c1cc(NC(=O)c2ccc(Cl)nc2)ccc1Cl | inconclusive: 22.4 µM [inhibitor, single point] | –
9 | CN(CC(=O)Nc1ccc(N2CCOCC2)cc1)Cc1c(O)ccc2ccccc12 | inconclusive: 10 µM [inhibitor, full curve, poor fit] | –
10 | O=C(OCc1ccccc1)C1=[N+]([O-])OC(C(=O)OCc2ccccc2)C1c1c[nH]c2ccccc12 (stereo not given) | – | inactive: -3.08%
11 | Cn1c(Cn2nnc3ccccc32)nnc1SCC(=O)N1CCc2ccccc21 | – | inactive: -0.0244% [at 57.1 µM]
12 | CCCCCc1nnc(NC(=O)Cc2cccs2)s1 | inconclusive: 56.2 µM [inhibitor, partial curve] | –
13 | Cc1ccc(-c2cc(C(=O)Nc3cccnc3)c3ccccc3n2)o1 | inconclusive: 56.2 µM [inhibitor, partial curve] | –
14 | CCCCc1nc2cc(C(=O)NCCc3cnn(C)c3)ccc2o1 | inconclusive: 89.1 µM [inhibitor, single point] | –
15 | COc1cc(/C=C2\C(=O)ON=C2c2ccc(Cl)cc2)ccc1O | inconclusive: 56.2 µM [inhibitor, partial curve] | –
16 | O=C(CSc1nnc(-c2ccccc2)c(-c2ccccc2)n1)NCc1ccco1 | – | inactive: -22.8%
17 | O=C(O)c1ccc(NC2=C/C(=N/S(=O)(=O)c3ccccc3)c3ccccc3C2=O)cc1 | inconclusive: 31.6 µM [inhibitor, partial curve] | –
18 | Cc1ccc(Cn2c(=S)[nH]c3ccc(N4CCOCC4)cc3c2=O)o1 | inconclusive: 50.1 µM [inhibitor, partial curve] | –
19 | COc1ccccc1NC(=O)CSc1sc2c(O)cc(=O)[nH]c2c1C#N | active: 50.1 µM | –
20 | COC(=O)c1ccc(CC(=O)c2c(C)cc(O)cc2O)o1 | inconclusive: 56.2 µM [inhibitor, partial curve] | –
21 | CCOc1ccc(NS(=O)(=O)c2ccc3[nH]cc(C(=O)NCC4CCCO4)c(=O)c3c2)cc1 (stereo not given) | – | inactive: -8.44%
22 | Cc1ccc(OCCn2cc(C=O)c3ccccc32)cc1 | inconclusive: 89.1 µM [inhibitor, single point] | –
23 | COc1cccc(N2C(=O)C(c3ccccc3)=C(c3nc4ccccc4s3)C2NC(C)=O)c1 (stereo not given) | – | inactive: -4.69%
24 | C/C(=N\Nc1ccc(Cl)c(C(=O)O)c1)c1cccc2ccccc12 | inconclusive: 35.5 µM [inhibitor, partial curve] | –

Row | SMILES | Potency | activity change, negative = inhibition
25 | CCCNC(=O)C(=O)N/N=C/c1ccc(OCc2ccccc2)cc1 | – | inactive: 5.77%
26 | COC(=O)c1c(NC(=O)COC(=O)[C@@H](NS(=O)(=O)c2ccc(C)cc2)C(C)C)sc2c1CCC2 | inconclusive: 11.2 µM [inhibitor, partial curve] | –
27 | C/C=C/C=C\C(=O)Nc1cccc(C2=NOC3(C2)C[C@H](C(N)=O)N(C(=O)CC#N)C3)c1 (stereo not given in full) | active: 44.7 µM | –
28 | CCCCCNC(=O)c1c[nH]c2ccc(S(=O)(=O)N3CCC4(CC3)OCCO4)cc2c1=O | inconclusive: 112 µM [inhibitor, partial curve, poor fit] | –
29 | CSc1ccc(Cl)c(C(=O)OCC(=O)NCc2ccco2)c1 | inconclusive: 50.1 µM [inhibitor, partial curve] | –
30 | O=C(NCc1ccco1)c1cc2c(s1)CSC2 | active: 17.8 µM | –
31 | CC1CCCN(Cc2c(O)ccc3c2O/C(=C\c2ccco2)C3=O)C1 (stereo not given) | active: 35.5 µM | –
32 | COc1cc(-c2cnc3c(NC=O)cc(-c4cccc(C(F)(F)F)c4)cn23)cc(OC)c1OC | inconclusive: 25.1 µM [inhibitor, single point] | –
33 | COc1cccc2c(=O)c3cccc(N)c3[nH]c12 | inconclusive: 50.1 µM [inhibitor, partial curve] | –
34 | CNS(=O)(=O)c1cccc(C(=O)OCC(=O)/C=C2/N(C)c3ccccc3C2(C)C)c1 | inconclusive: 35.5 µM [inhibitor, single point] | –
35 | CC1=C(C(=O)N2CCOCC2)CC(CC(=O)NC(c2ccccc2)c2ccccc2)C(=O)N1Cc1ccc(F)cc1 (stereo not given) | – | inactive: -4.93%
36 | Cc1ccc(C(=O)c2coc3c2C(=O)C(=O)c2ccccc2-3)cc1 | – | inactive: -18%
37 | COc1cc(C2NC(=O)NC(c3ccccc3)=C2C(C)=O)cc(Cl)c1OCC(=O)O (stereo not given) | – | inactive: 7.65%
38 | COC(=O)C1CCN(C(=O)c2cc(-c3ccco3)nc3ccccc23)CC1 | active: 50.1 µM | –
39 | CCOc1ccc(/C=C\c2nc(O)c([N+](=O)[O-])c(=O)[nH]2)cc1OCC | – | inactive: -10.3% [at 57.1 µM]
40 | COc1ccc(N2Cc3cccc(C(=O)NC(C)CCc4ccco4)c3C2=O)cc1 (stereo not given) | active: 35.5 µM | –
41 | CCCCC/C=C\C/C=C\C/C=C\CCCCC(=O)O | inconclusive: 35.5 µM [inhibitor, partial curve] | –
42 | O=C(COc1ccc(/C=N/NC(=O)c2ccc(O)cc2)cc1)Nc1cccc([N+](=O)[O-])c1 | inconclusive: 35.5 µM [inhibitor, single point] | –
43 | Cc1cc(Br)ccc1Nc1nc(N)nc(N)c1N=O | inconclusive: 11.2 µM [inhibitor, full curve, poor fit] | –
44 | Clc1ccc2c(NNc3ccccc3Cl)ccnc2c1 | – | inactive: -3.12%
45 | CCCCN1/C(=C/c2cccc[n+]2C)Sc2cc(NC(C)=O)ccc21 | – | inactive: 0.0281%
46 | NC(=O)SCC(=O)Nc1ccc(Cl)c(Cl)c1 | inconclusive: 56.2 µM [inhibitor, partial curve] | –
47 | O=C(c1ccc(COc2ccccc2Cl)o1)N1N=C(C(F)F)CC1(O)C(F)F (stereo not given) | inconclusive: 39.8 µM [inhibitor, single point] | –
48 | CSc1nsc(SCC(=O)Nc2ccc(F)cc2)n1 | – | inactive: 5.81%

Row | SMILES | Potency | activity change, negative = inhibition
49 | Cc1ccc(S(=O)(=O)Cc2ccc(C(=O)O)o2)cc1 | active: 44.7 µM | –
50 | COc1ccc(CCC(=O)OCc2csc(CC(=O)Nc3ccc(C)cc3)n2)cc1OC | inconclusive: 44.7 µM [inhibitor, full curve, poor fit] | –
51 | CCCCN(C(=O)c1cc2c(s1)CCC2)c1c(N)n(CCC)c(=O)[nH]c1=O | inconclusive: 50.1 µM [inhibitor, partial curve] | –
52 | CC(C)CCNc1nc(-c2ccco2)c2c(c1C#N)CCCC2 | inconclusive: 56.2 µM [inhibitor, partial curve] | –
53 | CN(C)S(=O)(=O)c1cccc(-c2nn(-c3ccccc3)cc2/C=C2\SC(=S)NC2=O)c1 | active: 50.1 µM | –
54 | CC(C(=O)Nc1ccc(C(=O)O)c(O)c1)N1C(=O)/C(=C\c2ccco2)SC1=S (stereo not given) | active: 39.8 µM | –
55 | O=C(N/N=C/c1cc2c(cc1Cl)OCO2)c1ccncc1 | inconclusive: 39.8 µM [inhibitor, single point] | –
56 | COc1ccc2c(c1OC)C(=O)OC2Nc1nc(-c2cccc([N+](=O)[O-])c2)cs1 (stereo not given) | inconclusive: 3.55 µM [inhibitor, full curve, poor fit] | –
57 | COc1cccc2c1NC(C(=O)O)C1CC=CC21 (stereo not given) | active: 12.6 µM | –
58 | Cc1ccc(-c2ccc(/C=N\NC(=O)c3cc4c(ccc5ccccc54)o3)o2)cc1[N+](=O)[O-] | – | inactive: -15.6%
59 | O=C(O)c1cc(N/N=C2/CC(c3ccccc3)Oc3ccccc32)ccc1Cl (stereo not given) | inconclusive: 28.2 µM [inhibitor, partial curve] | –
60 | CC(C)CCn1c(SCC(=O)OCn2nnc3ccccc3c2=O)nc2ccccc2c1=O | – | inactive: -3.42% [at 57.1 µM]
61 | COc1ccc(N=C2NC(=O)/C(=C\C=C\c3ccco3)S2)cc1 | active: 22.4 µM | –
62 | Cc1nc(NC(=O)C(Cl)Cl)sc1C(=O)N(C)C | inconclusive: 44.7 µM [inhibitor, partial curve] | –
63 | O=[N+]([O-])c1ccc(N/N=C/c2ccc(O)c(O)c2O)c(S(=O)(=O)N2CCOCC2)c1 | inconclusive: 23.8 µM [inhibitor, partial curve] | –
64 | Cc1ccc(Cl)cc1NC(=O)COC(=O)CSc1ccccc1 | inconclusive: 39.8 µM [inhibitor, full curve] | –
65 | Cn1nc(C(=O)Nc2cccc(S(N)(=O)=O)c2)c2ccccc2c1=O | inconclusive: 100 µM [inhibitor, single point] | –
66 | CCc1ccc(C(=O)NNc2ccc(S(N)(=O)=O)cc2)cc1 | inconclusive: 3.55 µM [inhibitor, full curve, poor fit] | –
67 | O=C(NC1CCCCC1)c1sc(=S)n2c1[nH]c(=O)c1ccccc12 | active: 50.1 µM | –
68 | COc1ccc(Nc2ccccc2N)cc1 | inconclusive: 89.1 µM [inhibitor, partial curve] | –
69 | O=c1cc2oc3cc(O)c(O)cc3c(-c3ccccc3[N+](=O)[O-])c-2cc1O | active: 0.752 µM | –
70 | CN1C(=O)/C(=C/c2cccc([N+](=O)[O-])c2)C(=O)N1c1ccccc1 | inconclusive: 79.4 µM [inhibitor, partial curve] | –

Entries of single compounds, quoted from the list. Values in the order: Potency | activity change, negative = inhibition
Cc1ccc(-c2ccc(/C=N\NC(=O)c3cc4c(ccc5ccccc54)o3)o2)cc1[N+](=O)[O-] is listed as – | inactive: -15.6%
CN(C)S(=O)(=O)c1cccc(-c2nn(-c3ccccc3)cc2/C=C2\SC(=S)NC2=O)c1 is listed as active: 50.1 µM | –
